From a melanoma drug combination screen (doi:10.1371/journal.pone.0140310); values rounded.

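The test systems are human melanoma cell lines, treated with a pair of drugs for 72 h and then stained and imaged. The read-out is the fraction of cleaved-PARP-positive nuclei, in % of that fraction in the DMSO control; 200 means twice the control level of this apoptosis marker. Every drug was used at one fixed concentration, the higher of two screened. The file gives one value for each pair and line, without errors, so small differences may be noise. Basal and induced levels differ widely between cell lines.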 An unselected part of the screen is shown.

All values are for the listed drug together with ZM336372 (10000 nM): Cc1ccc(NC(=O)c2cccc(N(C)C)c2)cc1NC(=O)c1ccc(O)cc1

| # | Partner | UACC-257 | LOX IMVI | WM1716 |
|---|---|---|---|---|
| 1 | CC[C@]1(O)C[C@H]2CN(CCc3c([nH]c4ccccc34)[C@@](C(=O)OC)(c3cc4c(cc3OC)N(C=O)[C@H]3[C@@](O)(C(=O)OC)[C@H](OC(C)=O)[C@]5(CC)C=CCN6CC[C@]43[C@@H]65)C2)C1 at 0.5 nM | 203 | 134 | 877 |
| 2 | O=C(CCCCCCC(=O)Nc1ccccc1)NO at 400 nM | 197 | 81.4 | 106 |
| 3 | COc1cc(Nc2ncc(F)c(Nc3ccc4c(n3)NC(=O)C(C)(C)O4)n2)cc(OC)c1OC at 2000 nM | 47.1 | 193 | 151 |
| 4 | CC(=O)O[C@@]12CO[C@@H]1C[C@H](O)[C@@]1(C)C(=O)[C@H](O)C3=C(C)[C@@H](OC(=O)[C@H](O)[C@@H](NC(=O)OC(C)(C)C)c4ccccc4)C[C@@](O)([C@@H](OC(=O)c4ccccc4)[C@H]21)C3(C)C at 0.5 nM | 144 | 179 | 1900 |
| 5 | Cn1cncc1[C@@](N)(c1ccc(Cl)cc1)c1ccc2c(c1)c(-c1cccc(Cl)c1)cc(=O)n2C at 50 nM | 76.0 | 50.5 | 53.0 |
| 6 | C[C@]1(O)C[C@@H](c2nc(-c3ccc4ccc(-c5ccccc5)nc4c3)c3c(N)nccn32)C1 at 2000 nM | 86.1 | 55.3 | 107 |
| 7 | CC(C)C[C@H](NC(=O)[C@H](Cc1ccccc1)NC(=O)c1cnccn1)B(O)O at 5 nM | 36.1 | 171 | 878 |
| 8 | O=C(O)c1ccc2c(c1)nc(Nc1cccc(Cl)c1)c1ccncc12 at 2000 nM | 172 | 1290 | 215 |
| 9 | OCc1c[nH]c2ccccc12 at 4000 nM | 191 | 238 | 14.0 |
| 10 | Cn1cc(C2=C(c3cn(C4CCN(Cc5ccccn5)CC4)c4ccccc34)C(=O)NC2=O)c2ccccc21 at 4000 nM | 971 | 111 | 104 |
| 11 | Oc1nc(-c2ccc(C(F)(F)F)cc2)nc2c1CSCC2 at 10000 nM | 58.3 | 210 | 61.3 |
| 12 | NC1(c2ccc(-c3nc4ccn5c(=O)[nH]nc5c4cc3-c3ccccc3)cc2)CCC1 at 2000 nM | 38.8 | 149 | 101 |
| 13 | Cc1cc(Nc2cc(N3CCN(C)CC3)nc(/C=C/c3ccccc3)n2)n[nH]1 at 200 nM | 38.2 | 339 | 157 |
| 14 | NCC(=O)Nc1ccc(-n2nc(C(F)(F)F)cc2-c2ccc3c(ccc4ccccc43)c2)cc1 at 5000 nM | 187 | 60.2 | 61.8 |
| 15 | Nc1nc(F)nc2c1ncn2[C@@H]1O[C@H](CO)[C@@H](O)[C@@H]1O at 1000 nM | 2450 | 196 | 50.9 |
| 16 | CO[C@H]1C[C@@H]2CC[C@@H](C)[C@@](O)(O2)C(=O)C(=O)N2CCCC[C@H]2C(=O)O[C@H]([C@H](C)C[C@@H]2CC[C@@H](OCCO)[C@H](OC)C2)CC(=O)[C@H](C)/C=C(\C)[C@@H](O)[C@@H](OC)C(=O)[C@H](C)C[C@H](C)/C=C/C=C/C=C/1C at 100 nM | 26.6 | 73.2 | 21.4 |

Repeated from the top, 2 entries:

{"partner": "CC[C@]1(O)C[C@H]2CN(CCc3c([nH]c4ccccc34)[C@@](C(=O)OC)(c3cc4c(cc3OC)N(C=O)[C@H]3[C@@](O)(C(=O)OC)[C@H](OC(C)=O)[C@]5(CC)C=CCN6CC[C@]43[C@@H]65)C2)C1 at 0.5 nM", "UACC-257": 203, "LOX IMVI": 134, "WM1716": 877}
{"partner": "O=C(CCCCCCC(=O)Nc1ccccc1)NO at 400 nM", "UACC-257": 197, "LOX IMVI": 81.4, "WM1716": 106}